# From the supplement of paper PMC11006884
# Protein sequences, listed by entry. Tags and fused reporters are not part of them. Lines headed by an entry give the natural chain unless they say otherwise; changes in a name come on top.
# UniProt O00232: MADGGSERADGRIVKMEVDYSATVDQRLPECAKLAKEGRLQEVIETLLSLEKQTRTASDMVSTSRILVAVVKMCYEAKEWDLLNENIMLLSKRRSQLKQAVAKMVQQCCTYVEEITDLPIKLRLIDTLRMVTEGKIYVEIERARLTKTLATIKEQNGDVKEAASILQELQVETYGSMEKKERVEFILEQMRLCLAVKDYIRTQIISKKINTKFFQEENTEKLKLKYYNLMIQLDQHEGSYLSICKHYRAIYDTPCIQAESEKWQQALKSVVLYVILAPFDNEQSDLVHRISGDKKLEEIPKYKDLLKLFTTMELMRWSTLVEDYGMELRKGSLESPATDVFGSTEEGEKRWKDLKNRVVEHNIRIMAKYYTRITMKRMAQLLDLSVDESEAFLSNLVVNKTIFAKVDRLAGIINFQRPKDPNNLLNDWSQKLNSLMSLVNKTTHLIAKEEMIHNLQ
# UniProt O15042: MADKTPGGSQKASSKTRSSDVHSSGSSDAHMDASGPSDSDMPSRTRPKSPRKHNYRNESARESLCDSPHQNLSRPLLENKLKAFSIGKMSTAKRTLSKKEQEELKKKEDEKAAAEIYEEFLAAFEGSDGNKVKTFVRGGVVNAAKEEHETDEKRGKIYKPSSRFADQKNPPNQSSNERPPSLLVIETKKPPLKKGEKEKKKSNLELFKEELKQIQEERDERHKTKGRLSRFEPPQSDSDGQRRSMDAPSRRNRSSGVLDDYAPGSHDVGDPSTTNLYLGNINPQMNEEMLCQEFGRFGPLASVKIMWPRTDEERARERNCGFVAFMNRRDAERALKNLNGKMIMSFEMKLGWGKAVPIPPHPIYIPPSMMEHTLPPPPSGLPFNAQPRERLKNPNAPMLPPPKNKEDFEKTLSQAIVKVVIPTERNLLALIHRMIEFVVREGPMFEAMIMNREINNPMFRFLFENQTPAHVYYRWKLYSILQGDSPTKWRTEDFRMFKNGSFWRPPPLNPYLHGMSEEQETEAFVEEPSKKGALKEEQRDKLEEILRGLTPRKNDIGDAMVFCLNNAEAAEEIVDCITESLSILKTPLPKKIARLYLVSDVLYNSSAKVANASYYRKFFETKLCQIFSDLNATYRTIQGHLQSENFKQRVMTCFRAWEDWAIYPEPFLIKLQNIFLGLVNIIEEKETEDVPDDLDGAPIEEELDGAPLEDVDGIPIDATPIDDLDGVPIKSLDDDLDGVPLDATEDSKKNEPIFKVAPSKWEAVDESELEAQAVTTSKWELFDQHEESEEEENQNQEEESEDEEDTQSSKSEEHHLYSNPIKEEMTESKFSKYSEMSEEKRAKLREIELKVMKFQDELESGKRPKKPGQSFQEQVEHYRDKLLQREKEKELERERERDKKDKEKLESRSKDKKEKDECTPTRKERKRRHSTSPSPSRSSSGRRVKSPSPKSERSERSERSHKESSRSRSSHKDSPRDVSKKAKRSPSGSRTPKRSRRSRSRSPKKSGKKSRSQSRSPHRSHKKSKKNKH
# UniProt O00411: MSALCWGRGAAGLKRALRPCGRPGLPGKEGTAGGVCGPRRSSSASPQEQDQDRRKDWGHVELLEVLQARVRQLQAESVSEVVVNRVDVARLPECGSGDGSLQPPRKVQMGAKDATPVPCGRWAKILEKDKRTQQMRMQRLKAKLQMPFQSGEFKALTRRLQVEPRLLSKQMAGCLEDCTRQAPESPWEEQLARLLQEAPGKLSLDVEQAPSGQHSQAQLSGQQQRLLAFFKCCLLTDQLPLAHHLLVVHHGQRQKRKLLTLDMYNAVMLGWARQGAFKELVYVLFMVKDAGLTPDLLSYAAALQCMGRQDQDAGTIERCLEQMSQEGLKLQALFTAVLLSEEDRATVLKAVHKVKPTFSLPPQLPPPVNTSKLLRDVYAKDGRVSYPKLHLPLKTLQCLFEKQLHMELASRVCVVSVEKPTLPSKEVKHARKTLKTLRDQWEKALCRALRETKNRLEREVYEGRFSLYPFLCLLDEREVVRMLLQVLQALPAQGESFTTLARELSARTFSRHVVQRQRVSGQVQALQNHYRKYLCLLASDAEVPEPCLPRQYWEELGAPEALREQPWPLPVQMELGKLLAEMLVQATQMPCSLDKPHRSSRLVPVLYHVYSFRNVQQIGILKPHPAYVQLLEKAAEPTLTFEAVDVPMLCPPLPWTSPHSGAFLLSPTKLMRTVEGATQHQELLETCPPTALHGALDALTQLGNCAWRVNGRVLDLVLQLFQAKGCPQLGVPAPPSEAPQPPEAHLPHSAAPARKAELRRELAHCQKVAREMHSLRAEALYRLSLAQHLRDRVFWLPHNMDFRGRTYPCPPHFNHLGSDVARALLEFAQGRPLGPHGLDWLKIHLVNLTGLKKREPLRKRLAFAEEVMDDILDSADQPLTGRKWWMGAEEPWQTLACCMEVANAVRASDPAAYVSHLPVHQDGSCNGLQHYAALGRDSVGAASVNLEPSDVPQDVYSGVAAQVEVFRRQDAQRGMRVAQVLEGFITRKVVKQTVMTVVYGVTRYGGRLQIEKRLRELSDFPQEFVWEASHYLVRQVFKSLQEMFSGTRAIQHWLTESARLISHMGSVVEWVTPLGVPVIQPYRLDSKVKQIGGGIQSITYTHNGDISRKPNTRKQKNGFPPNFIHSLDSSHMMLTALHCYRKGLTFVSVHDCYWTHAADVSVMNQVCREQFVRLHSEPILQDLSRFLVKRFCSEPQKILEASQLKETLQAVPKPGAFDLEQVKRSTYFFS
# UniProt O00469: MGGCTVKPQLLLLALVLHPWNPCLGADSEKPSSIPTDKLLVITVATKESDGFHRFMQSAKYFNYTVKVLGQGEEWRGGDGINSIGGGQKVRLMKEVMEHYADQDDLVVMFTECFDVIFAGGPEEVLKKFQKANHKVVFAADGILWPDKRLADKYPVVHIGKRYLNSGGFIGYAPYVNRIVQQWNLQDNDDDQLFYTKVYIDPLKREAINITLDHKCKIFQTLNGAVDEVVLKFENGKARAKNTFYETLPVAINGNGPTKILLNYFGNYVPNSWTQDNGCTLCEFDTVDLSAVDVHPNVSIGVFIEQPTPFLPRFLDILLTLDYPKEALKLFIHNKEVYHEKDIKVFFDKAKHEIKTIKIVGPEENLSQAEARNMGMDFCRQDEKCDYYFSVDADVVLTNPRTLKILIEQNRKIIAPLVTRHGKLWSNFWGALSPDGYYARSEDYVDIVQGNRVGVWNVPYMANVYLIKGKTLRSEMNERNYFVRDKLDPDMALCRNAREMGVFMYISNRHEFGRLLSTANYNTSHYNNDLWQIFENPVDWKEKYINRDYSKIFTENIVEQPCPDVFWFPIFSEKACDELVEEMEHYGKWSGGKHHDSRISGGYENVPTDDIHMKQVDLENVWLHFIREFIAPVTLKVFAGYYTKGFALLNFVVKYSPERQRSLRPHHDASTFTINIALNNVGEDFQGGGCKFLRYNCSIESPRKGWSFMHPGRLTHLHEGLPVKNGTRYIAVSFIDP
# UniProt O00410: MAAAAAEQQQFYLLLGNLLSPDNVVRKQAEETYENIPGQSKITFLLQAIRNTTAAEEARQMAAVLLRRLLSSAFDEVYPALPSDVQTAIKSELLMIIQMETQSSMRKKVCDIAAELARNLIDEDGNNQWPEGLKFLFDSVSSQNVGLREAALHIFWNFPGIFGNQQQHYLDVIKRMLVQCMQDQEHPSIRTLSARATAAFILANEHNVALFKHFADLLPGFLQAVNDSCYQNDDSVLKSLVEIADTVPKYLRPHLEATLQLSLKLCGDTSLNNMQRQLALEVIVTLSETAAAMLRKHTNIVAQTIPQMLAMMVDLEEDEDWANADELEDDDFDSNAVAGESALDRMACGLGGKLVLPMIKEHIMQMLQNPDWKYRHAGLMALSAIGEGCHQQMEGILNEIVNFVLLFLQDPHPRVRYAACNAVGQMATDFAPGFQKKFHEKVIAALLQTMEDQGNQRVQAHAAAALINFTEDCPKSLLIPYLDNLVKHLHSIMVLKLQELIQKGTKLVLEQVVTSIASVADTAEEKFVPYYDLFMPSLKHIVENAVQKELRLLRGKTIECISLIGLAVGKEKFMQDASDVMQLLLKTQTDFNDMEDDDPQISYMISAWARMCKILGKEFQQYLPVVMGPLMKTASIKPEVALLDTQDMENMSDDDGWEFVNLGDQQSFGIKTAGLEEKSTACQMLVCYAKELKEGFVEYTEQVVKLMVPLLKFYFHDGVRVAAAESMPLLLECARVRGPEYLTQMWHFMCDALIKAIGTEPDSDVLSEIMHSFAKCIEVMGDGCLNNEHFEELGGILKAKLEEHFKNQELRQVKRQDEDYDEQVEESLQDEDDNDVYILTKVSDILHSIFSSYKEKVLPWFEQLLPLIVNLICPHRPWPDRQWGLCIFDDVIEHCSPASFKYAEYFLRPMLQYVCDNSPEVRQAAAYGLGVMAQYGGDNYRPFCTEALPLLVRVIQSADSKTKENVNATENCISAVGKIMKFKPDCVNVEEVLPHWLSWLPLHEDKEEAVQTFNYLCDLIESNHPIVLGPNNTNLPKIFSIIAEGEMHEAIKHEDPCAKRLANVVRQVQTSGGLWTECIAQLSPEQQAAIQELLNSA
# UniProt O15111: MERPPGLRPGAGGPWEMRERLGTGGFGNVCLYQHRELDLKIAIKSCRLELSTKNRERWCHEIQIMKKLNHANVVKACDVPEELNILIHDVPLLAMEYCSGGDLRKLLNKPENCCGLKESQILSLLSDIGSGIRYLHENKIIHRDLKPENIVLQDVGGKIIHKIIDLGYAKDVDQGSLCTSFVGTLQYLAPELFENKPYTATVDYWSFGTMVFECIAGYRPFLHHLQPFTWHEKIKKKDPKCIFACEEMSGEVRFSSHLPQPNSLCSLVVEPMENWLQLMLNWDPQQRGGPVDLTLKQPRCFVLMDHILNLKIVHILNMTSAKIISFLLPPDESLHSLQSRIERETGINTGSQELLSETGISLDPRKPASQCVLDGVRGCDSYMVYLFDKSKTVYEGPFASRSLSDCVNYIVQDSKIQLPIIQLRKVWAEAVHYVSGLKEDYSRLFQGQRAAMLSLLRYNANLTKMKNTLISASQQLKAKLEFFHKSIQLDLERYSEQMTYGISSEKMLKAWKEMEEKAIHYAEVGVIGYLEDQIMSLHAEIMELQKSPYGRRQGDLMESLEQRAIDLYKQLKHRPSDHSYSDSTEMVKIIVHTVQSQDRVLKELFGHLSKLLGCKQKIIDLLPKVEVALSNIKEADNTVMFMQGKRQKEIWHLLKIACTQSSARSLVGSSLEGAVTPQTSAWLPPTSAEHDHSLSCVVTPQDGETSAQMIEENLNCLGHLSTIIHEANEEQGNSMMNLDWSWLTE
# UniProt O15294: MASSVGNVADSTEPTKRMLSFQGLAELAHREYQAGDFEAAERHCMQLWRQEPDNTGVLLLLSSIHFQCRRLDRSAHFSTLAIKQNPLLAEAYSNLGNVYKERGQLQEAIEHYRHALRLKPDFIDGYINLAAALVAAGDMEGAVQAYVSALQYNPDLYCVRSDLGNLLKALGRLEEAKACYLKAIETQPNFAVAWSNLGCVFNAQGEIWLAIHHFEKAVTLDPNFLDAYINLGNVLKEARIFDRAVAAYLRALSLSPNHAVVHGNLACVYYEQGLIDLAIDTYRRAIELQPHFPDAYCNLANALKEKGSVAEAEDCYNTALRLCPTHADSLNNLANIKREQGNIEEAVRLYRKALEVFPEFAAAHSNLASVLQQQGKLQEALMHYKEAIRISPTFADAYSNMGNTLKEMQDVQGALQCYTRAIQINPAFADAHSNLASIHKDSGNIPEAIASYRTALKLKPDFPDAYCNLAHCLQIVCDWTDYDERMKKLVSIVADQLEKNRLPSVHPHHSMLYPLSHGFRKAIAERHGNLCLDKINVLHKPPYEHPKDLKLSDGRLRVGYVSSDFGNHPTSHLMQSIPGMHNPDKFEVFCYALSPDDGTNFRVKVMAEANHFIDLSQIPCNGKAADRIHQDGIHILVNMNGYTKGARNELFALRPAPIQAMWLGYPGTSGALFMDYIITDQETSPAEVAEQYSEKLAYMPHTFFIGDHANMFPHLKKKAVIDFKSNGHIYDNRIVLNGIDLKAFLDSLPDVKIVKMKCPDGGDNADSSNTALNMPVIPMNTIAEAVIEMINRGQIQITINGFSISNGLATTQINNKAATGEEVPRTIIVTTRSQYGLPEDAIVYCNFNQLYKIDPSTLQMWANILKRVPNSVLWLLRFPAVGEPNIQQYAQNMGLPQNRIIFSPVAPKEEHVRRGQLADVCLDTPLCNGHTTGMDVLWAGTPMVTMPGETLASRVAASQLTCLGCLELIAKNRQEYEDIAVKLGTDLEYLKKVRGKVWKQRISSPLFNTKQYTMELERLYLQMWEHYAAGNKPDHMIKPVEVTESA
# UniProt O00233: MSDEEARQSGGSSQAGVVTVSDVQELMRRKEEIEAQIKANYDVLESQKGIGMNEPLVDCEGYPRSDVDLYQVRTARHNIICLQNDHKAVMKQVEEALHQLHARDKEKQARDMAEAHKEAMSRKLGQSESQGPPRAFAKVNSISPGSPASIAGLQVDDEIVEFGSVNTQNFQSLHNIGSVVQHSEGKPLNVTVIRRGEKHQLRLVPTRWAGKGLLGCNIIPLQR
# This list holds what a sample rich in targets with a hit left over. Single values of this set are uncertain. Only a part is listed here, and it is no random draw.
# Compound: COC(=O)/C=C/c1ccccc1 [methyl cinnamate]
# Test: log2 ratio of iodoacetamide-alkyne labeling of the cysteine site, DMSO over compound (competition); higher = stronger covalent engagement of the cysteine by the compound, active = 1 or more
# Details: 500 µM; treatment time 1 h; system: HEK293T cell lysate
# Method in brief: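 HEK293T lysate (2 mg/mL) was treated with DMSO or electrophile (500 µM, 1 h, ambient temperature), then iodoacetamide alkyne (1 h), clicked to sCIP-TMT reagents, pooled, trypsin-digested overnight at 37 °C, streptavidin-enriched and acid-eluted. Peptides were run on Orbitrap Eclipse LC-MS/MS with FAIMS and quantified in FragPipe. The log2 competition ratio per cysteine is mean control-channel over mean compound-channel reporter intensity. Duplicate channels and three replicates were used, and cysteines quantified in only one replicate were excluded.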
row,Target,log2 ratio of iodoacetamide-alkyne labeling
1,PSMD12 C255 (UniProt O00232),inactive: -0.167
2,WDR46 C456 (UniProt O15213),inactive: -0.197
3,PDLIM1 C263 (UniProt O00151),inactive: -0.0195
4,UniProt O15042_C65,inactive: 0.111
5,UniProt O00487_C238,inactive: 0.105
6,UniProt O00442_C28,inactive: 0.0664
7,UniProt O14733_C360,inactive: -0.061
8,NKRF C453 (UniProt O15226),inactive: 0.201
9,UniProt O15042_C320,inactive: 0.115
10,POLRMT C119 (UniProt O00411),inactive: 0.27
11,KIF2A C596 (UniProt O00139),inactive: -0.148
12,UniProt O14965_C393,inactive: 0.174
13,PLOD2 C494 (UniProt O00469),inactive: 0.221
14,IPO5 C229 (UniProt O00410),inactive: -0.125
15,PHGDH C111 (UniProt O43175),inactive: -0.0364
16,MYO1C C802 (UniProt O00159),inactive: 0.125
17,ARHGAP6 C769 (UniProt O43182),inactive: 0.275
18,UniProt A6NJ78_C172,inactive: 0.146
19,UniProt O14618_C244,inactive: 0.107

# No new results follow: entries from further up.
row,Target,log2 ratio of iodoacetamide-alkyne labeling
6,UniProt O00442_C28,inactive: 0.0664
7,UniProt O14733_C360,inactive: -0.061
8,NKRF C453 (UniProt O15226),inactive: 0.201
9,UniProt O15042_C320,inactive: 0.115
10,POLRMT C119 (UniProt O00411),inactive: 0.27
11,KIF2A C596 (UniProt O00139),inactive: -0.148
12,UniProt O14965_C393,inactive: 0.174
13,PLOD2 C494 (UniProt O00469),inactive: 0.221
14,IPO5 C229 (UniProt O00410),inactive: -0.125

# The list continues:

row,Target,log2 ratio of iodoacetamide-alkyne labeling
1,UniProt O00567_C52,inactive: -0.262
2,EXOC5 C517 (UniProt O00471),inactive: 0.297
3,SIVA1 C62 (UniProt O15304),inactive: -0.0611
4,UniProt O15042_C624,inactive: 0.259
5,PDLIM1 C307 (UniProt O00151),inactive: 0.0299
6,UniProt A8MW92_C472,inactive: 0.333
7,UniProt O15111_C406,inactive: 0.137
8,OGT C962 (UniProt O15294),inactive: -0.0988
9,HAT1 C27 (UniProt O14929),inactive: 0.313
10,TXNDC9 C94 (UniProt O14530),inactive: 0.214
11,PSMD9 C216 (UniProt O00233),inactive: 0.00303
12,POLRMT C726 (UniProt O00411),inactive: 0.342
13,UniProt O00487_C299,inactive: -0.529
14,IPO5 C915 (UniProt O00410),inactive: -0.0907
15,TNFRSF10B C341 (UniProt O14763),inactive: -0.00341
16,ZNF609 C178 (UniProt O15014),inactive: 0.0569
17,NDUFA4 C44 (UniProt O00483),inactive: 0.142
18,GEMIN2 C34 (UniProt O14893),inactive: 0.0446
